PubChem BioAssay AID504764 | Drosophila RNAi Screening Center – 2011
Test: 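Knock-downs that raise or lower a Notch target reporter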 (primary screen). Cells: Drosophila Kc167 cells. Reagents: long dsRNA against Drosophila genes. Timing: about 5 days (4 days dsRNA, then 24 h after transfection). Conditions: transfection of constitutively active membrane-tethered Notch lacking the extracellular domain, read 24 h later. Measured: 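Light from a Notch-responsive E(spl)m3 luciferase reporter under active Notch, with control-promoter and no-Notch reporter wells to normalise; raw counts from paired wells a and b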. Direction: induced reporter light, run 1, well a and induced reporter light, run 1, well b: higher = more light from the Notch target reporter with active Notch; control promoter light, run 1, well a and control promoter light, run 1, well b: higher = more light from the viral control promoter (cell number, transfection, viability); uninduced reporter light, run 1, well a: higher = more light from the Notch target reporter without active Notch. Rule for the call: 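Hit if the duplicate-averaged log2 ratio of induced to control-promoter light gives a plate-wise z beyond ±2, or induced to uninduced beyond ±1.8; weak-control or discordant-duplicate wells dropped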. Calls: active = modifier hit (raised or lowered Notch signal); inactive = not a hit.
The deposit covers about 22,000 reagents; this is an unselected part of those that have a named target and a result. Of all reagents, 403 (1.9%) got an active call. 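Unnormalised raw counts per well; ratio z-scores behind the hit calls and whether each hit raises or lowers signal are not deposited.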 Names joined by + are all predicted targets of the reagent. Not given: the amount of reagent.

no.	target	dsRNA	induced reporter light, run 1, well a	induced reporter light, run 1, well b	control promoter light, run 1, well a	control promoter light, run 1, well b	uninduced reporter light, run 1, well a	call
1	CG18088	DRSC02654	1.11e5	1.35e5	68500	90875	17790	inactive
2	ND-18	DRSC19441	98645	96885	1.17e5	1.20e5	9965	inactive
3	CG15642	DRSC19678	56445	60535	70685	53635	8350	inactive
4	wuho	DRSC18101	1.77e5	1.74e5	3.24e5	2.92e5	10428	inactive
5	Pura	DRSC08891	1.85e5	1.78e5	1.48e5	1.83e5	11345	inactive
6	Pura	DRSC10862	1.60e5	1.24e5	1.59e5	1.49e5	7700	inactive
7	Pura	DRSC10864	1.78e5	1.67e5	1.69e5	1.48e5	6935	inactive
8	Pura	DRSC10865	1.58e5	1.31e5	1.57e5	1.30e5	9650	inactive
9	Pura	DRSC10866	2.67e5	2.13e5	2.97e5	2.26e5	10570	inactive
10	CG14227	DRSC19584	1.58e5	1.58e5	2.33e5	2.93e5	12870	inactive
11	CG16713	DRSC00477	1.67e5	1.49e5	1.64e5	1.89e5	10755	inactive
12	spn-F	DRSC14475	1.42e5	1.27e5	2.15e5	2.06e5	7992	inactive
13	CG13186	DRSC06311	84120	1.44e5	1.51e5	1.59e5	11745	inactive
14	fln	DRSC11346	1.10e5	1.14e5	53680	73250	7590	inactive
15	CG12483	DRSC08278	1.28e5	1.25e5	2.26e5	1.30e5	7690	inactive
16	CG7707	DRSC10903	2.29e5	2.05e5	3.71e5	3.41e5	15440	active

In a second layout: 7 of the entries above
ND-18 [DRSC19441] | induced reporter light, run 1, well a = 98645; induced reporter light, run 1, well b = 96885; control promoter light, run 1, well a = 1.17e5; control promoter light, run 1, well b = 1.20e5; uninduced reporter light, run 1, well a = 9965; call = inactive
CG15642 [DRSC19678] | induced reporter light, run 1, well a = 56445; induced reporter light, run 1, well b = 60535; control promoter light, run 1, well a = 70685; control promoter light, run 1, well b = 53635; uninduced reporter light, run 1, well a = 8350; call = inactive
wuho [DRSC18101] | induced reporter light, run 1, well a = 1.77e5; induced reporter light, run 1, well b = 1.74e5; control promoter light, run 1, well a = 3.24e5; control promoter light, run 1, well b = 2.92e5; uninduced reporter light, run 1, well a = 10428; call = inactive
Pura [DRSC08891] | induced reporter light, run 1, well a = 1.85e5; induced reporter light, run 1, well b = 1.78e5; control promoter light, run 1, well a = 1.48e5; control promoter light, run 1, well b = 1.83e5; uninduced reporter light, run 1, well a = 11345; call = inactive
Pura [DRSC10862] | induced reporter light, run 1, well a = 1.60e5; induced reporter light, run 1, well b = 1.24e5; control promoter light, run 1, well a = 1.59e5; control promoter light, run 1, well b = 1.49e5; uninduced reporter light, run 1, well a = 7700; call = inactive
Pura [DRSC10864] | induced reporter light, run 1, well a = 1.78e5; induced reporter light, run 1, well b = 1.67e5; control promoter light, run 1, well a = 1.69e5; control promoter light, run 1, well b = 1.48e5; uninduced reporter light, run 1, well a = 6935; call = inactive
Pura [DRSC10865] | induced reporter light, run 1, well a = 1.58e5; induced reporter light, run 1, well b = 1.31e5; control promoter light, run 1, well a = 1.57e5; control promoter light, run 1, well b = 1.30e5; uninduced reporter light, run 1, well a = 9650; call = inactive

The results go on.
no.	target	dsRNA	induced reporter light, run 1, well a	induced reporter light, run 1, well b	control promoter light, run 1, well a	control promoter light, run 1, well b	uninduced reporter light, run 1, well a	call
17	osy	DRSC14903	1.65e5	2.15e5	2.39e5	2.39e5	13855	inactive
18	osy	DRSC15979	1.70e5	1.46e5	1.90e5	1.66e5	10890	inactive
19	osy	DRSC15981	1.77e5	2.26e5	2.58e5	2.70e5	14450	inactive
20	Marf1	DRSC03747	45735	52480	39225	35875	2585	inactive
21	Marf1	DRSC03774	80965	85230	71230	78280	8680	inactive
22	CG34029	DRSC03909	99610	79660	74800	78755	8660	inactive
23	CG14238	DRSC14732	1.47e5	98185	2.51e5	1.70e5	13055	inactive
24	Tim17a2	DRSC12252	87780	83670	1.21e5	96640	9115	inactive
25	CG1958	DRSC18196	1.54e5	1.63e5	2.55e5	2.76e5	11475	inactive
26	CG16736	DRSC15145	52855	54940	48090	72095	3470	inactive
27	Nos	DRSC03381	2.72e5	2.25e5	1.98e5	2.13e5	16465	inactive
28	RpL26	DRSC10726	21730	28150	24040	20070	1278	inactive
29	twy	DRSC10562	1.37e5	1.27e5	1.64e5	1.45e5	7600	inactive
30	CG2663	DRSC12314	80855	95475	1.45e5	1.04e5	8715	inactive
31	CG8891	DRSC03120	1.87e5	1.46e5	1.88e5	1.69e5	9660	inactive
32	Vha100-4	DRSC16282	2.12e5	1.93e5	1.95e5	2.28e5	13780	inactive
33	Srp72	DRSC15800	71120	79690	1.28e5	1.23e5	6170	inactive
34	Tsp66A + CG42661 + CG42660	DRSC10233	2.18e5	1.97e5	2.43e5	1.95e5	9555	inactive
35	CG14483	DRSC06455	1.02e5	83385	1.00e5	1.47e5	7320	inactive
36	Lrch	DRSC02996	2.34e5	2.56e5	2.64e5	2.68e5	21360	inactive
37	hng1	DRSC04555	91635	84365	60435	69395	5920	inactive
38	MsrA	DRSC11159	2.40e5	2.07e5	2.86e5	3.01e5	12125	inactive
39	CG32301	DRSC08613	94295	98910	1.30e5	1.75e5	6465	inactive
40	Nepl20	DRSC14878	1.24e5	1.34e5	1.56e5	1.81e5	11505	inactive
41	CG31008	DRSC14028	64670	96245	1.01e5	1.16e5	7110	inactive
42	CG17684	DRSC07724	84955	77935	90635	71040	7635	inactive
43	CG17684	DRSC21166	74845	78305	83000	1.28e5	10850	inactive
44	CG3224	DRSC18295	1.19e5	1.52e5	2.61e5	2.81e5	9090	inactive
45	CG13185	DRSC06310	1.14e5	1.22e5	1.35e5	1.20e5	9270	inactive
46	CG9451	DRSC11074	1.03e5	1.06e5	1.03e5	71620	9255	inactive
47	ND-51L1	DRSC06072	1.34e5	99100	1.21e5	1.13e5	12095	inactive
48	eIF2Bgamma	DRSC07100	1.08e5	1.50e5	2.23e5	2.29e5	10780	inactive
49	Hecw	DRSC18261	1.18e5	1.04e5	1.74e5	1.63e5	7265	inactive
50	Hecw	DRSC18276	1.29e5	1.43e5	2.33e5	2.90e5	8500	inactive
